# Assay results reported in the supplement of paper PMC4604168 (melanoma cell lines).
# This is one part of the list. Repeats are few or missing, and single values can be far off.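 The apoptosis fraction was the count of cleaved-PARP antibody-stained nuclei relative to all DNA-stained nuclei, imaged in 1,536-well plates. Screening doses were set so most cells survived, and baseline and induced cleaved-PARP levels vary greatly across cell lines.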
# Assays:
# Test in all cases: cleaved PARP positive nuclei fraction relative to DMSO control; melanoma cells; higher = more apoptosis
# Conditions in all cases: library dose: low library concentration; 72 h
# MZ2-MEL = tested on: MZ2-MEL
# MeWo = tested on: MeWo
# RPMI7951 = tested on: RPMI7951
# RVH-421 = tested on: RVH-421
# SkMel28 = tested on: SkMel28
# SkMel2 = tested on: SkMel2
# SkMel30 = tested on: SkMel30
# SkMel5 = tested on: SkMel5
# UACC257 = tested on: UACC257
# UACC62 = tested on: UACC62
SMILES,cleaved PARP positive nuclei fraction (MZ2-MEL) [%],cleaved PARP positive nuclei fraction (MeWo) [%],cleaved PARP positive nuclei fraction (RPMI7951) [%],cleaved PARP positive nuclei fraction (RVH-421) [%],cleaved PARP positive nuclei fraction (SkMel28) [%],cleaved PARP positive nuclei fraction (SkMel2) [%],cleaved PARP positive nuclei fraction (SkMel30) [%],cleaved PARP positive nuclei fraction (SkMel5) [%],cleaved PARP positive nuclei fraction (UACC257) [%],cleaved PARP positive nuclei fraction (UACC62) [%]
"C[C@]1(c2nc3c(C(N)=O)cccc3[nH]2)CCCN1 [Veliparib] + Cn1cncc1[C@@](N)(c1ccc(Cl)cc1)c1ccc2c(c1)c(-c1cccc(Cl)c1)cc(=O)n2C [tipifarnib] (first compound 1.4 µM, partner dose 0.01 µM)",89.4,109,90.2,251,72.3,168,78.9,224,205,177
"Cn1c(Nc2ccc(C(F)(F)F)cc2)nc2cc(Oc3ccnc(-c4ncc(C(F)(F)F)[nH]4)c3)ccc21 + O=C(O)c1ccc(-c2c[nH]c3ncc(-c4ccccc4)cc23)cc1C1CCCC1 [GSK650394] (first compound 0.08 µM, partner dose 0.16 µM)",149,46.1,191,88.8,72.6,95,148,97.7,669,318
"C#Cc1cccc(Nc2ncnc3cc(OCCOC)c(OCCOC)cc23)c1 [erlotinib] + Cc1cc(N2CCOCC2)cc2[nH]c(-c3c(NC[C@@H](O)c4cccc(Cl)c4)cc[nH]c3=O)nc12 [BMS536924] (first compound 0.8 µM, partner dose 0.2 µM)",184,116,98.3,77,130,108,269,260,125,60
"Nc1cccc2c1CN(C1CCC(=O)NC1=O)C2=O (stereo not given) [lenalidomide] + CN(C)S(=O)(=O)c1ccc2c(c1)/C(=C/c1cc3c([nH]1)CCCC3)C(=O)N2 [SU6656] (first compound 1 µM, partner dose 0.4 µM)",156,123,106,121,143,92.8,92.6,84.6,143,159
"C=CCNC1=C2C[C@@H](C)C[C@H](OC)[C@H](O)[C@@H](C)/C=C(\C)[C@H](OC(N)=O)[C@@H](OC)/C=C\C=C(/C)C(=O)NC(=CC1=O)C2=O [Tanespimycin] + COc1cc2c(Oc3ccc4[nH]c(C)cc4c3F)ncnc2cc1OCCCN1CCCC1 [cediranib] (first compound 0.002 µM, partner dose 0.4 µM)",170,114,42.2,93.6,91.1,92.6,60.4,131,139,74.2
"C=CCNC1=C2C[C@@H](C)C[C@H](OC)[C@H](O)[C@@H](C)/C=C(\C)[C@H](OC(N)=O)[C@@H](OC)/C=C\C=C(/C)C(=O)NC(=CC1=O)C2=O [Tanespimycin] + O=C(Nc1ccccc1)c1cc([N+](=O)[O-])ccc1Cl [GW9662] (first compound 0.002 µM, partner dose 2 µM)",85.4,229,96.9,85.4,50.1,20.3,415,139,53.6,109
"Cc1cc(N2CCOCC2)cc2[nH]c(-c3c(NC[C@@H](O)c4cccc(Cl)c4)cc[nH]c3=O)nc12 + NCC(=O)Nc1ccc(-n2nc(C(F)(F)F)cc2-c2ccc3c(ccc4ccccc43)c2)cc1 [OSU03012] (first compound 0.2 µM, partner dose 1 µM)",119,183,84.4,40.6,280,254,181,148,53.4,144
"C=CCNC1=C2C[C@@H](C)C[C@H](OC)[C@H](O)[C@@H](C)/C=C(\C)[C@H](OC(N)=O)[C@@H](OC)/C=C\C=C(/C)C(=O)NC(=CC1=O)C2=O [Tanespimycin] + COc1cc(Nc2ncc(F)c(Nc3ccc4c(n3)NC(=O)C(C)(C)O4)n2)cc(OC)c1OC [Tamatinib] (first compound 0.002 µM, partner dose 0.4 µM)",132,98.7,176,23.8,63.4,66.3,219,30.7,271,222
"C[C@]1(c2nc3c(C(N)=O)cccc3[nH]2)CCCN1 [Veliparib] + O=C(CCCCCCC(=O)Nc1ccccc1)NO [vorinostat] (first compound 1.4 µM, partner dose 0.08 µM)",153,102,140,31.9,126,146,346,54.6,86.8,69.2
"Clc1ccc(Nc2nnc(Cc3ccncc3)c3ccccc23)cc1 [vatalanib] + CC(C)(C)c1cnc(CSc2cnc(NC(=O)C3CCNCC3)s2)o1 [SNS-032] (first compound 2 µM, partner dose 0.01 µM)",165,111,70,107,97.4,121,64.9,188,85.5,58
"Cn1c(Nc2ccc(C(F)(F)F)cc2)nc2cc(Oc3ccnc(-c4ncc(C(F)(F)F)[nH]4)c3)ccc21 + COc1cc(Nc2ncc(F)c(Nc3ccc4c(n3)NC(=O)C(C)(C)O4)n2)cc(OC)c1OC [Tamatinib] (first compound 0.08 µM, partner dose 0.4 µM)",119,89.2,197,186,69.4,182,67.2,69.8,265,70.3
"C=CCNC1=C2C[C@@H](C)C[C@H](OC)[C@H](O)[C@@H](C)/C=C(\C)[C@H](OC(N)=O)[C@@H](OC)/C=C\C=C(/C)C(=O)NC(=CC1=O)C2=O [Tanespimycin] + Cn1cncc1[C@@](N)(c1ccc(Cl)cc1)c1ccc2c(c1)c(-c1cccc(Cl)c1)cc(=O)n2C [tipifarnib] (first compound 0.002 µM, partner dose 0.01 µM)",108,124,150,237,54.8,144,78.7,136,81.8,130
"CC(=O)c1c(C)c2cnc(Nc3ccc(N4CCNCC4)cn3)nc2n(C2CCCC2)c1=O [palbociclib] + O=c1cc(-c2cccc3c2Sc2ccccc2S3)oc(N2CCOCC2)c1 [KU55933] (first compound 0.04 µM, partner dose 1 µM)",106,60.9,168,55.4,125,71.7,73.5,202,154,148
"CC(=O)c1c(C)c2cnc(Nc3ccc(N4CCNCC4)cn3)nc2n(C2CCCC2)c1=O [palbociclib] + CO[C@@H]1[C@H](N(C)C(=O)c2ccccc2)C[C@H]2O[C@]1(C)n1c3ccccc3c3c4c(c5c6ccccc6n2c5c31)C(=O)NC4 [Midostaurin] (first compound 0.04 µM, partner dose 0.08 µM)",87.1,175,174,104,67.8,134,103,52.1,138,125
"Cn1nnc2c(C(N)=O)ncn2c1=O [temozolomide] + O=C(O)c1ccc(-c2c[nH]c3ncc(-c4ccccc4)cc23)cc1C1CCCC1 [GSK650394] (first compound 2 µM, partner dose 0.16 µM)",51.1,89.6,104,102,38.3,87.2,94.8,122,553,121
"Nc1cccc2c1CN(C1CCC(=O)NC1=O)C2=O (stereo not given) [lenalidomide] + Cc1ccc(NC(=O)c2cccc(N(C)C)c2)cc1NC(=O)c1ccc(O)cc1 [ZM336372] (first compound 1 µM, partner dose 2 µM)",92.9,102,199,62.2,365,75.8,81.9,67,121,51.1
"Cc1nc(Nc2ncc(C(=O)Nc3c(C)cccc3Cl)s2)cc(N2CCN(CCO)CC2)n1 [dasatanib] + C=CCn1c(=O)c2cnc(Nc3ccc(N4CCN(C)CC4)cc3)nc2n1-c1cccc(C(C)(C)O)n1 [MK1775] (first compound 0.004 µM, partner dose 0.02 µM)",180,119,147,70.3,180,84.1,77.7,167,156,80
"OCc1c[nH]c2ccccc12 [Indole-3-carbinol] + OCCn1cc(-c2cnc3nnn(Cc4ccc5ncccc5c4)c3n2)cn1 [PF04217903] (first compound 0.8 µM, partner dose 1 µM)",62.5,99,32.5,50.5,59.9,75.2,257,11.7,353,270
"C=CCNC1=C2C[C@@H](C)C[C@H](OC)[C@H](O)[C@@H](C)/C=C(\C)[C@H](OC(N)=O)[C@@H](OC)/C=C\C=C(/C)C(=O)NC(=CC1=O)C2=O [Tanespimycin] + NC(=O)Nc1cc(-c2cccc(F)c2)sc1C(=O)N[C@H]1CCCNC1 [AZD7762] (first compound 0.002 µM, partner dose 0.02 µM)",66.9,190,80.4,53.7,275,116,59.4,159,78.5,53.1
"Clc1ccc(Nc2nnc(Cc3ccncc3)c3ccccc23)cc1 [vatalanib] + c1cc(-c2cnn3cc(-c4ccc(OCCN5CCCCC5)cc4)cnc23)ccn1 [Dorsomorphin] (first compound 2 µM, partner dose 0.4 µM)",138,538,100,48.4,259,89.1,74.7,94.5,131,85.7
"Clc1ccc(Nc2nnc(Cc3ccncc3)c3ccccc23)cc1 [vatalanib] + CN(C)S(=O)(=O)c1ccc2c(c1)/C(=C/c1cc3c([nH]1)CCCC3)C(=O)N2 [SU6656] (first compound 2 µM, partner dose 0.4 µM)",328,116,65,76.2,57.5,58.8,70.1,177,158,304

# Some values from the list.
# Value of CC(=O)c1c(C)c2cnc(Nc3ccc(N4CCNCC4)cn3)nc2n(C2CCCC2)c1=O [palbociclib] + CO[C@@H]1[C@H](N(C)C(=O)c2ccccc2)C[C@H]2O[C@]1(C)n1c3ccccc3c3c4c(c5c6ccccc6n2c5c31)C(=O)NC4 [Midostaurin] (first compound 0.04 µM, partner dose 0.08 µM) under cleaved PARP positive nuclei fraction (RPMI7951) [%]: 174
# Value of C#Cc1cccc(Nc2ncnc3cc(OCCOC)c(OCCOC)cc23)c1 [erlotinib] + Cc1cc(N2CCOCC2)cc2[nH]c(-c3c(NC[C@@H](O)c4cccc(Cl)c4)cc[nH]c3=O)nc12 [BMS536924] (first compound 0.8 µM, partner dose 0.2 µM) under cleaved PARP positive nuclei fraction (RPMI7951) [%]: 98.3
